Results: article PMC3890319, “Role of Receptor Activity Modifying Protein 1 in Function of the Calcium Sensing Receptor in the Human TT Thyroid Carcinoma Cell Line” (PLoS ONE, 2014)
No constants are given. Whether binding was seen depends on the method and setting. Binding seen in cells or lysates may run through a third protein. Sequences can lack the tags named with a protein.

Protein sequences, listed by entry. Tags and fused reporters are not part of them. Residues count along the entry.
UniProt O60895, residues 43-175: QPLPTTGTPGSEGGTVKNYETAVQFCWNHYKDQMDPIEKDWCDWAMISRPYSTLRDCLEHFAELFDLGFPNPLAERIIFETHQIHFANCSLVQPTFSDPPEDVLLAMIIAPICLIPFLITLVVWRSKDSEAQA

Target: T1, Calcium Sensing Receptor, C-terminal Citrine fusion (UniProt P41180)
T1 sequence: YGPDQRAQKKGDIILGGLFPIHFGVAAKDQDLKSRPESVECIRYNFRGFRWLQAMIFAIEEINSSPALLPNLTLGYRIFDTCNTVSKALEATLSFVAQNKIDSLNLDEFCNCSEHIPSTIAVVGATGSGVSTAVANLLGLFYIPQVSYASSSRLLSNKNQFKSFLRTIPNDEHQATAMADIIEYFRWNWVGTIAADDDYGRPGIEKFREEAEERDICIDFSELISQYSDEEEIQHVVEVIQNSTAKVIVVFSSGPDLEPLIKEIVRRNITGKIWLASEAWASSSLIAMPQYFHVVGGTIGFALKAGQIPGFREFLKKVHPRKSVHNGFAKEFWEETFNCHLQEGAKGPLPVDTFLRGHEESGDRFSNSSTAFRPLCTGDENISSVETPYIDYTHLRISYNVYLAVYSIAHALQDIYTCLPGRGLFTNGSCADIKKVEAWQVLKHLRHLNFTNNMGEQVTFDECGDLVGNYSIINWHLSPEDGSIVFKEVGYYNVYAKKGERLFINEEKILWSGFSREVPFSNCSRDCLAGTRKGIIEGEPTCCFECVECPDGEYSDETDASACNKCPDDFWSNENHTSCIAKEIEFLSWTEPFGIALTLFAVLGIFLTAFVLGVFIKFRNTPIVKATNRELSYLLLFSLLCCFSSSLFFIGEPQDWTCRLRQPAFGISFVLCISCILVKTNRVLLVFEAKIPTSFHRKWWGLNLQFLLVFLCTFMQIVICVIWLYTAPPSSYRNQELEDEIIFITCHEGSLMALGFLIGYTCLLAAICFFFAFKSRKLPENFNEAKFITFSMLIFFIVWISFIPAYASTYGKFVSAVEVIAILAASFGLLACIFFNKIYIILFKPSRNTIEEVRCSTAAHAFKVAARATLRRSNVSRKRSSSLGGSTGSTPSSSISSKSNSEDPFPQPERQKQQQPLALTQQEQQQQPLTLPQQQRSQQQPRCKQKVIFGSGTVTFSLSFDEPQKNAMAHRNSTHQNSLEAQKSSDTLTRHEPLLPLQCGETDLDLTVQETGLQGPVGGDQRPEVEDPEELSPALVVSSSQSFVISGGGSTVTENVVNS
Experiment: FRET or BRET; sensitized-emission FRET (NFRET, PixFRET) and FRET-based stoichiometry in cell-surface regions of interest (50-pixel dots) of fixed COS-7 cells co-transfected with CaSR-Citrine (acceptor) and RAMP-Cerulean (donor); confocal microscopy at room temperature; NFRET as percent of a Cerulean-linker-Citrine positive control; negative control Citrine alone + RAMP-Cerulean

Receptor Activity Modifying Protein 2, C-terminal Cerulean fusion (from UniProt O60895 43-175)
binding: no binding
